We go through 40 targets from the supplement of paper PMC10849652.

By UniProt entry, the sequences of proteins in these tests, tags left out. Where a name states a change or a piece, a line headed by the entry shows the natural chain unless it says otherwise.
UniProt Q9BTE3: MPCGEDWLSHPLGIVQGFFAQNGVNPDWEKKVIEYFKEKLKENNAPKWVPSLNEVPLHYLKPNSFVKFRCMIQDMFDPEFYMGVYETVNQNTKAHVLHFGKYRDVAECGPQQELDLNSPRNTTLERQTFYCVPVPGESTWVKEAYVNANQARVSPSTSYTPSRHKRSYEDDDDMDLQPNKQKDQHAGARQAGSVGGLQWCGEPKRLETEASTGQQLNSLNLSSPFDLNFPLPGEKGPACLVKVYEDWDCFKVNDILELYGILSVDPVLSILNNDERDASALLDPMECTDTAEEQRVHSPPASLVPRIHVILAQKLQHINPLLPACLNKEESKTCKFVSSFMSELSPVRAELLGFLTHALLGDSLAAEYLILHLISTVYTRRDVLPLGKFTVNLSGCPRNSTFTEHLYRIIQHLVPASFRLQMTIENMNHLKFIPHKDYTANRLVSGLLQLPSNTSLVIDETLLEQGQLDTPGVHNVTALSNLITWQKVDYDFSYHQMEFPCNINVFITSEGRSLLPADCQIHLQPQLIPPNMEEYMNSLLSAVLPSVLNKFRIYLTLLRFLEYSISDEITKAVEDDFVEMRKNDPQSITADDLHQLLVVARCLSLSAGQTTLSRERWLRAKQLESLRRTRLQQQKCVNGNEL
UniProt P40926: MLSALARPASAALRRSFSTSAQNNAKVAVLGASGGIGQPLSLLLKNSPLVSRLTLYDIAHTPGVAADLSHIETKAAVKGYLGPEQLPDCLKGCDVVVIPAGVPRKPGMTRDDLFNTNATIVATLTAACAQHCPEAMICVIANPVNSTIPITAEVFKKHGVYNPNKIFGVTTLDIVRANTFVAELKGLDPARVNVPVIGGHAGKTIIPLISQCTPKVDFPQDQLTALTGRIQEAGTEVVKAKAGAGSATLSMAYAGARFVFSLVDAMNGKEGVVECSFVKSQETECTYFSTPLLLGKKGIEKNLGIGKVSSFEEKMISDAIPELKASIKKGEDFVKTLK
UniProt Q9HCE5: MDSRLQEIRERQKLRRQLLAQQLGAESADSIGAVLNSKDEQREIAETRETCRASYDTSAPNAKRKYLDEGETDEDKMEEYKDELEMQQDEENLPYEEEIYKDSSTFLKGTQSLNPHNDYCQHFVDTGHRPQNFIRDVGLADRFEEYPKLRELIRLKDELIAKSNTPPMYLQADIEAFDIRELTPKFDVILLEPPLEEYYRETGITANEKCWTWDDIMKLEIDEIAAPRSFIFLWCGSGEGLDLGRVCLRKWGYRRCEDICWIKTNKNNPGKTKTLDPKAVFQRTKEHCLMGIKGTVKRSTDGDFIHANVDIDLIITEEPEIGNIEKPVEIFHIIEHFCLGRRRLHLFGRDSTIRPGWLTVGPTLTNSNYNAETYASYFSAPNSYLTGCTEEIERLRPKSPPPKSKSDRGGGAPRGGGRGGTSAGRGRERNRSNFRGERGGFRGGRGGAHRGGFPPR
UniProt Q07820, whole entry, looked up: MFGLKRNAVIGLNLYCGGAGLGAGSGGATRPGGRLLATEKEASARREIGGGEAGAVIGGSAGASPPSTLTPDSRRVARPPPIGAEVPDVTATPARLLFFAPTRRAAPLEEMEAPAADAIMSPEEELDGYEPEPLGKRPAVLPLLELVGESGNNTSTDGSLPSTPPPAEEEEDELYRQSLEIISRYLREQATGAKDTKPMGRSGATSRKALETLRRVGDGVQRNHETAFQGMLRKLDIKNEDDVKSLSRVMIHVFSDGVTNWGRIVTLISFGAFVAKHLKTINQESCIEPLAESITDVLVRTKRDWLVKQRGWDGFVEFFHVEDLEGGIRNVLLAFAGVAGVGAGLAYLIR
UniProt Q5TF39: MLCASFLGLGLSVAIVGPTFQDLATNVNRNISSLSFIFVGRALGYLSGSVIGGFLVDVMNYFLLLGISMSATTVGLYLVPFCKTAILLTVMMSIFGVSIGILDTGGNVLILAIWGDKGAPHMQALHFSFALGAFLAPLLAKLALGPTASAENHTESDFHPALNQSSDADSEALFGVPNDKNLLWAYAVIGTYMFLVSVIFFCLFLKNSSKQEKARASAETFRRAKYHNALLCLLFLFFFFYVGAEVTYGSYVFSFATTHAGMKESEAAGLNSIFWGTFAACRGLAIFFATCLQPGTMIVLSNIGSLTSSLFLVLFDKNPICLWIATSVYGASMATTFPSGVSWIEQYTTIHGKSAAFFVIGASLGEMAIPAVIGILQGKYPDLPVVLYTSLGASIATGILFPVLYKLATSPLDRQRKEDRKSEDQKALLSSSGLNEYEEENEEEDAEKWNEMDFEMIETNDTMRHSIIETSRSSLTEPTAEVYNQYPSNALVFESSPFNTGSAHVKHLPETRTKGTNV
UniProt Q9NPJ6: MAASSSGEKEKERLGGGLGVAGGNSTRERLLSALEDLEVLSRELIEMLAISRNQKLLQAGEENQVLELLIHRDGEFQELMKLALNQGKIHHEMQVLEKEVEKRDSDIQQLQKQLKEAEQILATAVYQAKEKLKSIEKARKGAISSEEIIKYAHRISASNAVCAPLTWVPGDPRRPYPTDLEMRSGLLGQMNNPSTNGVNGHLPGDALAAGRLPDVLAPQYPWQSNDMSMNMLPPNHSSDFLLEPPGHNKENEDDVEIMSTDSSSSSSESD
UniProt Q06413, whole entry, looked up: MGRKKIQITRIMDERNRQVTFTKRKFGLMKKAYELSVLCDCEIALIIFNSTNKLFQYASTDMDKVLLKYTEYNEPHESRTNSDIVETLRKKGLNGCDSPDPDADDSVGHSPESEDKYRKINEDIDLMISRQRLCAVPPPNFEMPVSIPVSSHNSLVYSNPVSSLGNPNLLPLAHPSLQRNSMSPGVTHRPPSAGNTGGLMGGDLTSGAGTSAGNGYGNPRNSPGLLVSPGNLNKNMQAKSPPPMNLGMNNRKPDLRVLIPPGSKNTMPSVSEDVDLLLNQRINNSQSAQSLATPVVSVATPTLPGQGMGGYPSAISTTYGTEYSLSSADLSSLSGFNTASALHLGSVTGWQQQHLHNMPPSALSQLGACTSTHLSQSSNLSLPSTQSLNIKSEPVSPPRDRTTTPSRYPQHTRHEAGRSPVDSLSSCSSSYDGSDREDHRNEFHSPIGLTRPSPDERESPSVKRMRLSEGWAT
UniProt Q96RN5: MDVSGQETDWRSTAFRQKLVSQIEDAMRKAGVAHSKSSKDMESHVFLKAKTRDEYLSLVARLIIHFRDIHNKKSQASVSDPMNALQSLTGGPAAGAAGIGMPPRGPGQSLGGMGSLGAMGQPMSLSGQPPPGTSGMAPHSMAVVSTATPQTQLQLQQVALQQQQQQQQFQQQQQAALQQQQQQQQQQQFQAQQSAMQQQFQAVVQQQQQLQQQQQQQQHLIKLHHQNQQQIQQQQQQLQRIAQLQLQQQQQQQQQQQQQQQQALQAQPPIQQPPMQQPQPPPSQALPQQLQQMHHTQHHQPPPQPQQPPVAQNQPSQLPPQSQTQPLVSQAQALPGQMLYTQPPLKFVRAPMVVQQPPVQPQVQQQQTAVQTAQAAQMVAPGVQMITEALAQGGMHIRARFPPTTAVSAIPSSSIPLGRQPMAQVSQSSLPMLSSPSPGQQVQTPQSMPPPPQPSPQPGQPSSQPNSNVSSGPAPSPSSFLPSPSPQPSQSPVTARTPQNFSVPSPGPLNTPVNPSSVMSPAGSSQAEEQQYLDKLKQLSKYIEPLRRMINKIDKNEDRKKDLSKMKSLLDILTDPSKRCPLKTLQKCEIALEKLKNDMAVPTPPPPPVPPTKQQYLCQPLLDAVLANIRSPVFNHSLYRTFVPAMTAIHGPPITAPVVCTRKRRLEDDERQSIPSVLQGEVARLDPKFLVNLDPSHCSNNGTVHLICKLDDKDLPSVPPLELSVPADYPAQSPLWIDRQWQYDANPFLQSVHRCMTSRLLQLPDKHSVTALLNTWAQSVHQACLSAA
UniProt Q8NI22: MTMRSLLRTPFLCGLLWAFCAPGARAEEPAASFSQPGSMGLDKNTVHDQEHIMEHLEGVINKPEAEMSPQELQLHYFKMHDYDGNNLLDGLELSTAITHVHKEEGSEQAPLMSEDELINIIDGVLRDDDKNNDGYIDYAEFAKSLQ
UniProt Q16798: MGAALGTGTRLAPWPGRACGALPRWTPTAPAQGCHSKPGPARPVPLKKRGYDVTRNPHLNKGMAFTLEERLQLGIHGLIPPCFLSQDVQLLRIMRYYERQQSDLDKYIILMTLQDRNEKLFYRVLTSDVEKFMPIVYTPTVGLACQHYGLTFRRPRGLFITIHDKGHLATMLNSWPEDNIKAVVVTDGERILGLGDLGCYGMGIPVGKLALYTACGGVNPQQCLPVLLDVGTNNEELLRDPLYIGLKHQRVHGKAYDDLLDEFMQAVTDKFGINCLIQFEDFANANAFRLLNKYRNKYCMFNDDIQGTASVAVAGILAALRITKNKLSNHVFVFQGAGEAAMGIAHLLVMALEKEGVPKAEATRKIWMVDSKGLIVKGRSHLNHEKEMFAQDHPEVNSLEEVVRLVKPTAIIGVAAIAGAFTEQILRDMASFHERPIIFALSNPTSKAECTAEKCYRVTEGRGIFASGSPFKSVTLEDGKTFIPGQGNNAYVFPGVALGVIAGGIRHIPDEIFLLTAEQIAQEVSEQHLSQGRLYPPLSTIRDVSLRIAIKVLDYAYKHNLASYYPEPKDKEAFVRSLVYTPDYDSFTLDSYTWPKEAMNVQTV
UniProt P51608, whole entry, looked up: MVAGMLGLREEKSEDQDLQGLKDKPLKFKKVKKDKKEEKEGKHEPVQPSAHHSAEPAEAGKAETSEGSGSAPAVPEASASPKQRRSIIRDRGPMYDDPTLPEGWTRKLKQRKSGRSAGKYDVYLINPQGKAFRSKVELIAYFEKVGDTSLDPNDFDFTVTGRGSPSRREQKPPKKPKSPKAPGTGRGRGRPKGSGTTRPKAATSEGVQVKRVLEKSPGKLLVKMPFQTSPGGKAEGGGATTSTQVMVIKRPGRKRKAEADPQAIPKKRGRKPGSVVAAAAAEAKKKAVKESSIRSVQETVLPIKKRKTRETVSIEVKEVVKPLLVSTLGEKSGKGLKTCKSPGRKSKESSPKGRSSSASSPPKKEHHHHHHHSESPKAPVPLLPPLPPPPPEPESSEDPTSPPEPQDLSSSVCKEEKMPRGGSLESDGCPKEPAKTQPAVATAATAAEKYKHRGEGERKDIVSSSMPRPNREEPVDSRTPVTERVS
UniProt P33991: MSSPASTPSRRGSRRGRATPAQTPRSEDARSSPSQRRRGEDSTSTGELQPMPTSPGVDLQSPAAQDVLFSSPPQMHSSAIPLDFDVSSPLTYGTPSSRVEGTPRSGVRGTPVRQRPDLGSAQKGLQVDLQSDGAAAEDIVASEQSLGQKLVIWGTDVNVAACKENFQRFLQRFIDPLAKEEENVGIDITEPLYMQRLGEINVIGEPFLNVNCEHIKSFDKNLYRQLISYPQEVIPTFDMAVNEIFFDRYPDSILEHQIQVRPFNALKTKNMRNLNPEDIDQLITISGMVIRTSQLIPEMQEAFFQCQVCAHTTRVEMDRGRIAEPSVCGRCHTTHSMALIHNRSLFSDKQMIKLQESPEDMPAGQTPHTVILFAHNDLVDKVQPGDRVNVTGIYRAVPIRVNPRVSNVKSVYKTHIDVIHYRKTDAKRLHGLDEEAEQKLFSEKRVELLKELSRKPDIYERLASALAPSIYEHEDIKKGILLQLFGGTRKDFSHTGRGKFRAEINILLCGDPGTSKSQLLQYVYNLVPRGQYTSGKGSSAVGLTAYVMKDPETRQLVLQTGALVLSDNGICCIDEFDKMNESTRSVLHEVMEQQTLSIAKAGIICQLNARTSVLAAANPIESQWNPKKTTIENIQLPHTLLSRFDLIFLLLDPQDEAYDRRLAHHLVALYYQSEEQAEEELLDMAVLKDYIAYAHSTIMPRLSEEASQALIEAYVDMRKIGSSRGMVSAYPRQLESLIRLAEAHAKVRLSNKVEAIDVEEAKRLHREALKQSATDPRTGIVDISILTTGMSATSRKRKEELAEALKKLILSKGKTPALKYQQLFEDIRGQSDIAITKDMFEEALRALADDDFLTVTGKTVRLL
UniProt P55081: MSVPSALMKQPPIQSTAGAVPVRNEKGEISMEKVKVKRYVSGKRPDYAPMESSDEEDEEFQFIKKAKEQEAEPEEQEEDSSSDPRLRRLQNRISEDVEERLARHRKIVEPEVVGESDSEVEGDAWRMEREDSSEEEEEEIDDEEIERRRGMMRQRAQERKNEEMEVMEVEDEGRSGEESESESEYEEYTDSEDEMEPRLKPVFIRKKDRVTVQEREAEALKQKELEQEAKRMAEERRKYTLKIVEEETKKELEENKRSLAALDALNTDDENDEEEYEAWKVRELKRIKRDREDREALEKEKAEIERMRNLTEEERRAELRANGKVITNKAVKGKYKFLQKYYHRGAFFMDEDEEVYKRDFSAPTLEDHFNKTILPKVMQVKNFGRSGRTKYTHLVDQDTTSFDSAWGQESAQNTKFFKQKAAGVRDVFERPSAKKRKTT
UniProt Q9BUT9: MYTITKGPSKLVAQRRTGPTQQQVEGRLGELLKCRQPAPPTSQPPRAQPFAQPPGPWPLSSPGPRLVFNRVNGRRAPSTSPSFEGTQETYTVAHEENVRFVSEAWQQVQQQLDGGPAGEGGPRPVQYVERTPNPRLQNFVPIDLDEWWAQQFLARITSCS

Some of the results follow.

Compound in the first assay: NC(=O)Nc1cc(-c2cccc(F)c2)sc1C(=O)N[C@H]1CCCNC1
The assay can be described thus: log2 fold change, soluble protein after heating vs DMSO (PISA); higher = thermal stabilisation; K562 lysate, 10 uM; active = over 0.2 and 3.5 SD of the protein, either way, in both replicates (recomputed). Summed up: (§1)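 To prepare the extract, K562 pellets were dounce-homogenised in PBS pH 7.4 with 1 mM MgCl2, giving crude material at 1 mg/mL protein. This was treated with 10 μM compound for 30 min, then heated in aliquots for 3 min over 48°C-58°C before pooling and addition of NP-40 to 0.5% at 4°C. Centrifugation at 21,000xg for 90 min left soluble protein in the supernatant, which TMTpro 16plex LC-MS/MS quantified with equalised channel sums. Results are log-two fold changes in thermal stability compared with solvent controls, from duplicates.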
As to MCMBP (UniProt Q9BTE3), the log2 fold change is inactive: 0.039.
In the case of MED20 (UniProt Q9H944), the log2 fold change is inactive: 0.007.
Still for that read-out and setting: in the case of METTL5 (UniProt Q9NRN9) it was inactive: -0.018; in that of MDH2 (UniProt P40926), inactive: -0.001; in that of METTL14 (UniProt Q9HCE5), inactive: -0.003.
Still for that read-out and setting: then MECR (UniProt Q9BV79), with inactive: -0.041.
The same measure, in the same setting: in the case of METAP1D (UniProt Q6UB28) it was inactive: 0.028.
In the case of MEF2A (UniProt Q02078), the log2 fold change was inactive: 0.016.
The same measure, in the same setting: then MFSD10 (UniProt Q14728), with inactive: -0.015.
On the same count and under the same terms, in the case of MCL1 (UniProt Q07820) it was inactive: 0.031.
On the same count and under the same terms, in the case of MCM6 (UniProt Q14566) it was inactive: -0.002; in that of MED7 (UniProt O43513), inactive: 0.078.
Take MFSD4B (UniProt Q5TF39): the log2 fold change was inactive: 0.02.
With ME2 (UniProt P23368), the log2 fold change was inactive: 0.01.
With METTL2A (UniProt Q96IZ6), the log2 fold change was inactive: 0.057.
Still for that read-out and setting: then MFN2 (UniProt O95140), with inactive: 0.03.
Consider MED8 isoform 2 (UniProt Q96G25), for which the log2 fold change is inactive: -0.005.
The same measure, in the same setting: then MED4 (UniProt Q9NPJ6), with inactive: -0.007; and METTL16 (UniProt Q86W50), with inactive: 0.011; and MEF2C isoform 5 (UniProt Q06413), with inactive: 0.036.
On the same count and under the same terms, in the case of MCUR1 (UniProt Q96AQ8) it was inactive: -0.01; in that of METAP2 (UniProt P50579), inactive: -0.004; in that of MBD3 (UniProt O95983), inactive: 0.005.
Take MBD2 (UniProt Q9UBB5): the log2 fold change is inactive: -0.009.
Same read-out and setting: then MED15 (UniProt Q96RN5), with inactive: 0.014; and MCFD2 (UniProt Q8NI22), with inactive: -0.002.
Still for that read-out and setting: in the case of MCM2 (UniProt P49736) it was inactive: 0.016; in that of MEAF6 isoform 3 (UniProt Q9HAF1), inactive: 0.02; in that of ME3 (UniProt Q16798), inactive: 0.084.
Same read-out and setting: then MECP2 isoform 2 (UniProt P51608), with inactive: 0.039.
Turning to MBOAT2 (UniProt Q6ZWT7), the log2 fold change was inactive: 0.011.
Still for that read-out and setting: then MCM4 (UniProt P33991), with inactive: 0.013.
On the same count and under the same terms, in the case of MEA1 (UniProt Q16626) it was inactive: 0.077.
Still for that read-out and setting: then MFAP1 (UniProt P55081), with inactive: -0.031; and MED30 (UniProt Q96HR3), with inactive: 0.024; and METTL3 (UniProt Q86U44), with inactive: -0.008.
In the case of MCRIP1 (UniProt I3L4Q0), the log2 fold change was inactive: -0.008.
Still for that read-out and setting: in the case of MCRIP2 (UniProt Q9BUT9) it was inactive: -0.073; in that of MEF2D (UniProt Q14814), inactive: 0.053.
The same measure, in the same setting: in the case of MESD (UniProt Q14696) it was inactive: -0.061.

Compound in the next assay: NC(=O)c1cnc(N[C@@H]2CCCC[C@@H]2N)nc1Nc1cccc(-n2nccn2)c1
The assay is described as above. Summed up: as §1
Consider MCMBP (UniProt Q9BTE3), for which the log2 fold change was inactive: 0.014.
For MED20 (UniProt Q9H944), the log2 fold change is inactive: 0.003.
On the same count and under the same terms, then METTL5 (UniProt Q9NRN9), with inactive: -0.008; and MDH2 (UniProt P40926), with inactive: -0.03.
With METTL14 (UniProt Q9HCE5), the log2 fold change was inactive: 0.031.
Same read-out and setting: then MECR (UniProt Q9BV79), with inactive: 0.02; and METAP1D (UniProt Q6UB28), with inactive: 0.022; and MEF2A (UniProt Q02078), with inactive: -0.038.
Still for that read-out and setting: in the case of MFSD10 (UniProt Q14728) it was inactive: -0.013.
Take MCL1 (UniProt Q07820): the log2 fold change is inactive: -0.045.
Still for that read-out and setting: then MCM6 (UniProt Q14566), with inactive: -0.003; and MED7 (UniProt O43513), with inactive: 0.027.
Consider MFSD4B (UniProt Q5TF39), for which the log2 fold change was inactive: 0.
The same measure, in the same setting: then ME2 (UniProt P23368), with inactive: -0.013.
In the case of METTL2A (UniProt Q96IZ6), the log2 fold change is inactive: -0.029.
Consider MFN2 (UniProt O95140), for which the log2 fold change was inactive: 0.038.
On the same count and under the same terms, in the case of MED8 isoform 2 (UniProt Q96G25) it was inactive: 0.016; in that of MED4 (UniProt Q9NPJ6), inactive: 0.02; in that of METTL16 (UniProt Q86W50), inactive: 0.005.
Still for that read-out and setting: then MEF2C isoform 5 (UniProt Q06413), with inactive: 0.097; and MCUR1 (UniProt Q96AQ8), with inactive: -0.007.
The same measure, in the same setting: in the case of METAP2 (UniProt P50579) it was inactive: -0.028.
Take MBD3 (UniProt O95983): the log2 fold change was inactive: 0.035.
Still for that read-out and setting: in the case of MBD2 (UniProt Q9UBB5) it was inactive: -0.003; in that of MED15 (UniProt Q96RN5), inactive: 0.031.
For MCFD2 (UniProt Q8NI22), the log2 fold change is inactive: -0.016.
The same measure, in the same setting: then MCM2 (UniProt P49736), with inactive: -0.009; and MEAF6 isoform 3 (UniProt Q9HAF1), with inactive: -0.018; and ME3 (UniProt Q16798), with inactive: -0.044.
Same read-out and setting: then MECP2 isoform 2 (UniProt P51608), with inactive: 0.03; and MBOAT2 (UniProt Q6ZWT7), with inactive: 0.03.
On the same count and under the same terms, in the case of MCM4 (UniProt P33991) it was inactive: -0.002.
As to MEA1 (UniProt Q16626), the log2 fold change is inactive: -0.102.
Same read-out and setting: then MFAP1 (UniProt P55081), with inactive: 0.037; and MED30 (UniProt Q96HR3), with inactive: -0.04; and METTL3 (UniProt Q86U44), with inactive: -0.026.
Still for that read-out and setting: then MCRIP1 (UniProt I3L4Q0), with inactive: -0.047; and MCRIP2 (UniProt Q9BUT9), with inactive: 0.073; and MEF2D (UniProt Q14814), with inactive: -0.037.
Still for that read-out and setting: then MESD (UniProt Q14696), with inactive: -0.005.
